Source: PubChem BioAssay AID686943 (Drosophila RNAi Screening Center, 2013)
Assay: 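Fly genes whose loss alters ERK activation after insulin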 (primary screen). System: Drosophila S2R+ haemocyte-like cells expressing YFP-tagged ERK (Rolled). Reagent: long dsRNA against Drosophila genes. Conditions: insulin stimulation versus unstimulated cells; dose and duration not given. Detection: 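Per-plate z-scores of phospho-ERK immunostaining normalised to YFP-tagged ERK, measured with and without insulin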. Scale: replicate 1, z-score of dpERK with insulin: higher = more active ERK per ERK-YFP after insulin.
The screen tested about 23,000 reagents; below is an unselected part of those that have a named target and a result. 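Extra replicates exist only for a retested subset of genes; insulin dose and duration not given; both raised and lowered dpERK matter.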 A plus sign joins genes that one reagent is predicted to hit. Further read-outs or replicates are left out here. Reagent sequences are not shown. Not given: the amount of reagent, the time to read-out.

With knock-down of Spn47C [DRSC07030], the screen gave replicate 1, z-score of dpERK with insulin 0.49.
Depletion of CG14990 [DRSC08449] gave: replicate 1, z-score of dpERK with insulin 0.07.
Knock-down of CSN6 [DRSC16593] gave: replicate 1, z-score of dpERK with insulin -1.03.
With knock-down of cv-d [DRSC16522] the results were replicate 1, z-score of dpERK with insulin 0.4.
cv-d [DRSC16524] gave replicate 1, z-score of dpERK with insulin -0.06.
Against cv-d [DRSC16526], the values are replicate 1, z-score of dpERK with insulin 0.22.
Depletion of Ufd4 [DRSC02871] gave: replicate 1, z-score of dpERK with insulin -1.38.
RpS8 [DRSC16318] scored replicate 1, z-score of dpERK with insulin 1.26.
Knock-down of CNT1 [DRSC06082] came out at: replicate 1, z-score of dpERK with insulin 0.27.
Depletion of Rbf [DRSC18704] came out at: replicate 1, z-score of dpERK with insulin 0.14.
scny [DRSC10509] scored replicate 1, z-score of dpERK with insulin 6.04.
With knock-down of scny [DRSC10510] the results were replicate 1, z-score of dpERK with insulin 0.
With knock-down of GluRIA [DRSC11176], the screen gave replicate 1, z-score of dpERK with insulin -0.58.
After knock-down of Scgdelta [DRSC18544] the results were replicate 1, z-score of dpERK with insulin 0.38.
Silencing of CG11970 [DRSC14157] gave: replicate 1, z-score of dpERK with insulin 0.06.
Silencing of CG31827 + CG18478 [DRSC01958] came out at: replicate 1, z-score of dpERK with insulin 0.29.
With knock-down of zetaTry [DRSC07720], the screen gave replicate 1, z-score of dpERK with insulin 0.86.
With knock-down of CG13622 [DRSC14624], the screen gave replicate 1, z-score of dpERK with insulin -0.29.
With knock-down of mRpL50 [DRSC11015], the screen gave replicate 1, z-score of dpERK with insulin 0.07.
After knock-down of Lip1 [DRSC03364], the record shows replicate 1, z-score of dpERK with insulin -0.71.
CG14346 [DRSC00376] scored replicate 1, z-score of dpERK with insulin 0.57.
For CG3502 + CG9863 [DRSC04578] the deposit lists replicate 1, z-score of dpERK with insulin 0.13.
Against WRNexo [DRSC16278] the deposit lists replicate 1, z-score of dpERK with insulin 0.6.
Pu [DRSC04645] showed replicate 1, z-score of dpERK with insulin -0.72.
After knock-down of BckdhB [DRSC21183] the results were replicate 1, z-score of dpERK with insulin 0.28.
Depletion of CG6928 [DRSC10749] resulted in: replicate 1, z-score of dpERK with insulin 1.56.
With knock-down of dnc [DRSC17758], the screen gave replicate 1, z-score of dpERK with insulin -2.32.
dnc [DRSC17759] showed replicate 1, z-score of dpERK with insulin -1.38.
After knock-down of dnc [DRSC17911], the screen gave replicate 1, z-score of dpERK with insulin -0.97.
dnc [DRSC18763] gave replicate 1, z-score of dpERK with insulin 0.45.
Silencing of dnc [DRSC18764] gave: replicate 1, z-score of dpERK with insulin -1.25.
After knock-down of CG14505 [DRSC06476], the screen gave replicate 1, z-score of dpERK with insulin 0.12.
Silencing of mmy [DRSC02002] came out at: replicate 1, z-score of dpERK with insulin 0.36.
Knock-down of CkIIbeta2 [DRSC07361] gave: replicate 1, z-score of dpERK with insulin 0.43.
After knock-down of achi [DRSC07276], the record shows replicate 1, z-score of dpERK with insulin 0.91.
Silencing of M7BP [DRSC05053] gave: replicate 1, z-score of dpERK with insulin -0.23.
Knock-down of M7BP [DRSC05054] gave: replicate 1, z-score of dpERK with insulin 1.81.
Silencing of M7BP [DRSC05932] came out at: replicate 1, z-score of dpERK with insulin 0.61.
Depletion of M7BP [DRSC06701] gave: replicate 1, z-score of dpERK with insulin 0.03.
M7BP [DRSC06816] gave replicate 1, z-score of dpERK with insulin 0.89.

Ordered by “replicate 1, z-score of dpERK with insulin” (low to high): 4 of the entries above
dnc [DRSC17758] — replicate 1, z-score of dpERK with insulin = -2.32
dnc [DRSC17759] — replicate 1, z-score of dpERK with insulin = -1.38
dnc [DRSC17911] — replicate 1, z-score of dpERK with insulin = -0.97
CG6928 [DRSC10749] — replicate 1, z-score of dpERK with insulin = 1.56
